# Screen size: about 580,000 compounds; about 6,100 (1.1%) were called active. This list was built around the results that the source calls inconclusive (neither active nor inactive); the mix of calls is not that of the screen. The call rests on the fitted dose curve; in most records, active means well fitted inhibition curve with a large enough effect; inconclusive means small, poorly fitted or top-dose-only effect, or another doubt; inactive means no such curve, though single readings can be large or run the other way. Where the call is inconclusive, the potency comes from a doubtful curve fit.
# Amino acid sequences for entries named in this document (tags omitted). A change or cut given only in a name is not applied to a line headed by its entry.
# UniProt P18054: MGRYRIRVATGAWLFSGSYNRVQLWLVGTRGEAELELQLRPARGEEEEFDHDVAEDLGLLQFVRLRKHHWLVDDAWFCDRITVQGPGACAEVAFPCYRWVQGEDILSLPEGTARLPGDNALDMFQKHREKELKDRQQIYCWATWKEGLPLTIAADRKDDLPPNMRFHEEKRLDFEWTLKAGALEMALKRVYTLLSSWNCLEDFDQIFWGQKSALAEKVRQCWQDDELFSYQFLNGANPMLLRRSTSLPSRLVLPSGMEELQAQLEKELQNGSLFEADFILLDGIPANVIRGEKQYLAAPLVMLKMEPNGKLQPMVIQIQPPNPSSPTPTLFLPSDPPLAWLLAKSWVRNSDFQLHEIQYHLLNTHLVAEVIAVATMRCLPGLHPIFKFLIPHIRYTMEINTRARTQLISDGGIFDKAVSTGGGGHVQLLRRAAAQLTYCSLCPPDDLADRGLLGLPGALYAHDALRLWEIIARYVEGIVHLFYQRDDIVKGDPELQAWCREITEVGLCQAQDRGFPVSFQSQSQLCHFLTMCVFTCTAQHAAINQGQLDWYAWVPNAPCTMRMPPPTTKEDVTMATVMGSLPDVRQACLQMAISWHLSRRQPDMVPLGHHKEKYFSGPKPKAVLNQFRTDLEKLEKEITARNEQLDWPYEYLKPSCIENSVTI
# Target: Polyunsaturated fatty acid lipoxygenase ALOX12 (Homo sapiens) (UniProt P18054)
# Experiment: Primary qHTS assay for inhibitors of human arachidonate 12S-lipoxygenase (ALOX12): Round 2
# Conditions: purified 12hLO, xylenol orange hydroperoxide absorbance; activity change, negative = inhibition: at 108 µM (top of the series) unless noted
# Summary of the method: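 Hydroperoxide product was detected by ferrous iron/xylenol orange as the 573 to 405 nm absorbance ratio. Arachidonic acid at 40 uM (final) was turned over for 30 min at room temperature by 150 nM human 12hLO, pH 7.0 Hepes buffer, after 15 min compound preincubation.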
# On the % scale 0 is the no-effect control and ±100 the full control effect; potency means the concentration at half of the fitted maximal effect.
Compound,Potency,"activity change, negative = inhibition"
CC1(C)Cc2cccc(C(=O)Nc3ccc(Cl)cc3)c2O1,"inconclusive: 112 µM [inhibitor, single point]",–
O=C(/C=C\c1ccc(O)c(O)c1)O[C@@H](Cc1ccc(O)c(O)c1)C(=O)O,"inconclusive: 5.62 µM [inhibitor, full curve, poor fit]",–
COc1ccc(CCC(=O)NC2CC(=O)N(c3cccc(F)c3)C2)cc1 (stereo not given),–,inactive: -1.92%
COc1ccc(N=Cc2c(OC)ccc3ccccc23)cc1,–,inactive: 23.1%
CCn1cc(CN2CCN(C(=O)CCc3ccccc3)CC2)ccc1=O,"inconclusive: 14.1 µM [inhibitor, full curve, poor fit]",–
CC(C)(C)c1ccc(C(=O)NCC(=O)NNC(=O)c2ccccc2O)cc1,"inconclusive: 39.8 µM [inhibitor, partial curve, poor fit]",–
COc1c(Cl)cc(C(=O)Nc2ccccc2-c2ccccc2)cc1Cl,–,inactive: 6.25%
COc1cccc2cc(C(=O)N3CCN(c4ccc(C)cc4)CC3)c(=O)oc12,"inconclusive: 39.8 µM [inhibitor, partial curve, poor fit]",–
COCCCNC(=O)c1c[nH]c2ncccc12,–,inactive: 26.3% [at 176 µM]
Cc1ccc(NC(=O)c2n[nH]c(=O)c3ccccc23)c(C)c1,–,inactive: -13.1%
COCc1c(C(=O)NCc2ccccc2CN2CCCC2)oc2ccccc12,"inconclusive: 112 µM [inhibitor, single point]",–
CC1(C)Cc2ccccc2-c2nnc(-c3ccc4ccccc4n3)n21,–,inactive: 3.35%
CCOCC(=O)N1C[C@@H](Oc2ccccc2)C[C@H]1C(=O)NCCOC,–,inactive: 15.2%
CS(=O)(=O)OCCCOS(C)(=O)=O,"inconclusive: 7.94 µM [inhibitor, full curve]",–
O=C1NC(=S)N/C1=C/c1cccc([N+](=O)[O-])c1O,"inconclusive: 50.1 µM [inhibitor, partial curve, poor fit]",–
O=C(N/N=C/c1ccc(O)cc1)c1cccc(N/N=C/c2ccc(O)cc2)c1,"inconclusive: 50.1 µM [inhibitor, partial curve, poor fit]",–
Cc1c(Cl)cccc1NC(=O)CNC(=O)C1CCN(C(=O)Nc2ccccc2)CC1,–,inactive: -1.14%
CCc1ccc(NC(=O)Cn2ccn(Cc3ccccc3OC)c(=O)c2=O)cc1,"inconclusive: 141 µM [inhibitor, partial curve, poor fit]",–
O=C(COC(=O)c1ccc(Cl)nc1)Nc1nnc(-c2ccccc2)o1,–,inactive: -19%
COc1ccc(-c2nnc3n2-c2ccccc2SC3)cc1OC,"inconclusive: 31.6 µM [inhibitor, partial curve, poor fit]",–

# Reprinted from the results shown (2 entries):
Compound,Potency,"activity change, negative = inhibition"
CCc1ccc(NC(=O)Cn2ccn(Cc3ccccc3OC)c(=O)c2=O)cc1,"inconclusive: 141 µM [inhibitor, partial curve, poor fit]",–
O=C(COC(=O)c1ccc(Cl)nc1)Nc1nnc(-c2ccccc2)o1,–,inactive: -19%

# Reference: PubChem BioAssay AID1671190 (National Center for Advancing Translational Sciences (NCATS), 2021)
